Data from patent US20190265250A1 (CORNELL UNIVERSITY, published 2019).
Where a chain is given by its changes, count along the chain named. In names and notes the source's numbering stands. Each block holds one binder with its values, some of them ahead of it.

Molecular target: T1, HA-Ube2N (human, UniProt P61088 1-152)
T1 construct: Co-expressed in HEK293T cells with the Halo-(FLAG)-Ube2V2 constructs; also called ubiquitin-conjugating enzyme E2N
T1 sequence: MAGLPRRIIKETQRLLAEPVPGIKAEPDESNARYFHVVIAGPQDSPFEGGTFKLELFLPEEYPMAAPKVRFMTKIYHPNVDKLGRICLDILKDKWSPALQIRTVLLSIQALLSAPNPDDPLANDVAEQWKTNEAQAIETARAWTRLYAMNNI
Assay: co-IP with anti-FLAG resin from HEK293T lysate, western blot (FIGS. 8A-8B)

- binding result: binds
B1: wt-Halo-(FLAG)-Ube2V2 (human Halo-TEV-Flag-Ube2V2-wt) (other)
chain: AVSTGVKVPRNFRLLEELEEGQKGVGDGTVSWGLEDDEDMTLTRWTGMIIGPPRTNYENRIYSLKVECGPKYPEAPPSVRFVTKINMNGINNSSGMVDARSIPVLAKWQNSYSIKVVLQELRRLMMSKENMKLPQPPEGQTYNN
notes: Ectopically expressed in HEK293T cells and immunoprecipitated with anti-FLAG resin; also called Halo-Ube2V2; HaloTagged-wt-Ube2V2; not shown: N-terminal HaloTag (pFN21a vector); linker with TEV cleavage site and FLAG tag

- binding result: binds
B2: C69S-Halo-(FLAG)-Ube2V2 (Halo-TEV-Flag-Ube2V2-C69S) (other)
chain: B1 chain with C68S
notes: Ectopically expressed in HEK293T cells and immunoprecipitated with anti-FLAG resin; also called C69S-mutant; C69S-hypomorph; not shown: N-terminal HaloTag (pFN21a vector); linker with TEV cleavage site and FLAG tag; only DNA primers are printed
